Results as given in patent EP4652204A2.
No constants are given. Whether binding was seen depends on the method and setting. Some binding calls cover weakened binding; strength is not graded here. Where a sequence is shown, tags or fusion partners need not be part of it.

Chains of the proteins cited; added tags and fusions are not shown. Lines headed by an entry give the natural chain unless they say otherwise; changes in a name come on top.
UniProt Q8NHJ6: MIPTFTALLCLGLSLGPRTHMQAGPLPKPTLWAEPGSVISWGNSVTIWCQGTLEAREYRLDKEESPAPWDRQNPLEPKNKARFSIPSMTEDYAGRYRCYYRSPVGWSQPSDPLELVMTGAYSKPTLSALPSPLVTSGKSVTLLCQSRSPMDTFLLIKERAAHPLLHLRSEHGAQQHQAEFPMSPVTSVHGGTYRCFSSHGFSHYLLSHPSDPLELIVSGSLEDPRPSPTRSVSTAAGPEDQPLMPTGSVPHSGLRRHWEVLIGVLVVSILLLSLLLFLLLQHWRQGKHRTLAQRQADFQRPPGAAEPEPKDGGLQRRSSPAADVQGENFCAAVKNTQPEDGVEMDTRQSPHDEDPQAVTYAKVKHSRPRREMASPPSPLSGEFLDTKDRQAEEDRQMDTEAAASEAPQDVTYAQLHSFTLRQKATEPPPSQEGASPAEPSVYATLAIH

Assays:
[1] = biological target: recombinant ectodomain of LILRB4 common variant (human) (UniProt Q8NHJ6); assay: ELISA
[2] = biological target: recombinant ectodomain of LILRB4 common variant (human) (UniProt Q8NHJ6); assay: ELISA (FIG. 14 legend)

binding [1]: binds | binding [2]: binds
B1: recombinant Fc mutated mIgG2a anti-LILRB4 mAb (clone: ZM3.1) (antibody, V domains shown)
VH: EVQLQQSGAELVKPGASVKLSCTASGFNIKDTYVHWVKQRPEQGLEWIGRIDPANGHTKYDPKFQVRATITTDTSSTTAYLQLSSLTSEDTAVYYCGTEGIFDGYPFAYWGQGTLVTVSA
VL: DIVMTQSHKFMSTSVGDRVSITCKASQDVGTAVAWYQQKPGQSPKVLIYWASTRHTGVPDRFTGSGSGTDFTLTISNVQSEDLADYFCHQYSTYPLTFGGGTKLEIK
